Drawing on the supplement of paper PMC12819154, “High-throughput peptide-centric local stability assay extends protein–ligand identification to membrane proteins, tissues and bacteria” (Nature Structural & Molecular Biology, 2025), this text covers log2 fold change for 36 targets.

Sequences of proteins named here, by UniProt entry; tags and fusion partners are left off. A change or cut given only in a name is not applied to a line headed by its entry.
UniProt Q6P9R1: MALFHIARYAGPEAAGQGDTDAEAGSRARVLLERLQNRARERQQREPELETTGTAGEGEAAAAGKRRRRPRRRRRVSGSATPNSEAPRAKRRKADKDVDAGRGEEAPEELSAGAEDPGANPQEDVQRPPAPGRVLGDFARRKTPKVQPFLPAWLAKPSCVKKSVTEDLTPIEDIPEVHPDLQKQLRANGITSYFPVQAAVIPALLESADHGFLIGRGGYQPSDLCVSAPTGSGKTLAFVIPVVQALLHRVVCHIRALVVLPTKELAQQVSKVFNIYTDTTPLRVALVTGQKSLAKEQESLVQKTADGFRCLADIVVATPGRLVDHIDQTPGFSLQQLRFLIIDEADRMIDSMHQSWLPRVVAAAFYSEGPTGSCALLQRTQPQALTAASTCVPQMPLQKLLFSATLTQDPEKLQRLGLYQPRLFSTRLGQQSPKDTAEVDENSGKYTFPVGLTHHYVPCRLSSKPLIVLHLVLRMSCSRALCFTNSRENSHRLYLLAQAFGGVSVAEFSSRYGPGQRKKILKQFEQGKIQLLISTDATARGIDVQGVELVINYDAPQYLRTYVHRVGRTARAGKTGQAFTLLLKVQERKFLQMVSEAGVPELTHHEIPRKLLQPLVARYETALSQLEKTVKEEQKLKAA
UniProt Q6PB51: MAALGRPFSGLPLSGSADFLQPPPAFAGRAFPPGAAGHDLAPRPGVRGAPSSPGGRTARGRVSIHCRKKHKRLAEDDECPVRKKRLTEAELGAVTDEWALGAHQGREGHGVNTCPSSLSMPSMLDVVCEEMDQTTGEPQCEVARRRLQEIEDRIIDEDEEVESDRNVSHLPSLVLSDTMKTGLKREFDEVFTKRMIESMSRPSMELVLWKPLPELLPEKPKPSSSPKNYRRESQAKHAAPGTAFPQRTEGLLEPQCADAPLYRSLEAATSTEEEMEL
UniProt Q6IS41: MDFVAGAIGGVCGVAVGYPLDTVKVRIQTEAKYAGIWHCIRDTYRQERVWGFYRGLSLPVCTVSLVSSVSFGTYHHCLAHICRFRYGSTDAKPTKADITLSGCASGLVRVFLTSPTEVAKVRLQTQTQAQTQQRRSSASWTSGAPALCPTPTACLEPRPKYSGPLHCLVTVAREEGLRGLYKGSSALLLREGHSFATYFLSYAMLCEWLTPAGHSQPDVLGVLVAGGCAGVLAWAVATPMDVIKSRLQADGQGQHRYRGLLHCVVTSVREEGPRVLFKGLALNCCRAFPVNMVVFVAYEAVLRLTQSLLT
UniProt Q6DFV7: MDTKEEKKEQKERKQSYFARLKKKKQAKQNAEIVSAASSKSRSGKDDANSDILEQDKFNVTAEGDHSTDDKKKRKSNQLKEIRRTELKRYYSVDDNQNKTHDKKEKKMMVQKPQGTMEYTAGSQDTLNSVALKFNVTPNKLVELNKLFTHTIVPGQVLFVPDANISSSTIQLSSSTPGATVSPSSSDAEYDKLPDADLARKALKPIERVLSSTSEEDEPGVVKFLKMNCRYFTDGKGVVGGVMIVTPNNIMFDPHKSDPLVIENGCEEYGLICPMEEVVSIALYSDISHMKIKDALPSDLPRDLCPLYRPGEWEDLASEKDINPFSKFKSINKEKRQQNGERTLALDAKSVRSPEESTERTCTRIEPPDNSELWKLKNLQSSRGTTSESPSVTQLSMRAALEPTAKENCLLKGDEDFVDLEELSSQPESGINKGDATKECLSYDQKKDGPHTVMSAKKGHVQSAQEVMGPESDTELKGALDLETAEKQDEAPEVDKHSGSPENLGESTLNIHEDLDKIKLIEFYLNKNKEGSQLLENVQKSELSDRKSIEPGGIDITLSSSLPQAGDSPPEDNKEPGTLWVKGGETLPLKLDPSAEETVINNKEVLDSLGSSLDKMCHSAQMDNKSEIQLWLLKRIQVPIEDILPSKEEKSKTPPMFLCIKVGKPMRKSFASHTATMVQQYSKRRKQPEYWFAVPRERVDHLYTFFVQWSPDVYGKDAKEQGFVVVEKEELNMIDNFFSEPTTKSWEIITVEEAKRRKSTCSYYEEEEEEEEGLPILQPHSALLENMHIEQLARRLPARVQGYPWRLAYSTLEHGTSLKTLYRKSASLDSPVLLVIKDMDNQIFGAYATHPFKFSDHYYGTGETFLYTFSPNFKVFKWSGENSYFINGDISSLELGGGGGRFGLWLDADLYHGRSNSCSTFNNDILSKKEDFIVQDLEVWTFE
UniProt Q6PGF7: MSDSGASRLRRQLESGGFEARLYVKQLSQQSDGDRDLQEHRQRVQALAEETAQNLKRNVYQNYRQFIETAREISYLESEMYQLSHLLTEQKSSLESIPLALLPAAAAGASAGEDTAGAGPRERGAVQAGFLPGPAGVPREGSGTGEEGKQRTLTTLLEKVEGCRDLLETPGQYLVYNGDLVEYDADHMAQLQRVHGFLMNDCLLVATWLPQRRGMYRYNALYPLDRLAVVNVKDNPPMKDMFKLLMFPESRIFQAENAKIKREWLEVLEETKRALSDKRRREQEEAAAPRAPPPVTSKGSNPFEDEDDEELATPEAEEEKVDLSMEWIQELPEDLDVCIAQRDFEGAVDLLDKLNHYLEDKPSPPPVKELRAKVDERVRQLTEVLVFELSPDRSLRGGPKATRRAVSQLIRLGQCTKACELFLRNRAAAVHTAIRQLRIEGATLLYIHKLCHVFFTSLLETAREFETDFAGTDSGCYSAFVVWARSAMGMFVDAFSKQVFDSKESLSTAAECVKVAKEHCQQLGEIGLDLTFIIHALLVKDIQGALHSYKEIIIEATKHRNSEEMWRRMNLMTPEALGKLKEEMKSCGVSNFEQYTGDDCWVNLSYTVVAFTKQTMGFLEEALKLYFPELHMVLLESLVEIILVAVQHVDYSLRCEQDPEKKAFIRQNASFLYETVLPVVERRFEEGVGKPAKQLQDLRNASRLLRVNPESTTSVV
UniProt Q6PNC0, whole entry: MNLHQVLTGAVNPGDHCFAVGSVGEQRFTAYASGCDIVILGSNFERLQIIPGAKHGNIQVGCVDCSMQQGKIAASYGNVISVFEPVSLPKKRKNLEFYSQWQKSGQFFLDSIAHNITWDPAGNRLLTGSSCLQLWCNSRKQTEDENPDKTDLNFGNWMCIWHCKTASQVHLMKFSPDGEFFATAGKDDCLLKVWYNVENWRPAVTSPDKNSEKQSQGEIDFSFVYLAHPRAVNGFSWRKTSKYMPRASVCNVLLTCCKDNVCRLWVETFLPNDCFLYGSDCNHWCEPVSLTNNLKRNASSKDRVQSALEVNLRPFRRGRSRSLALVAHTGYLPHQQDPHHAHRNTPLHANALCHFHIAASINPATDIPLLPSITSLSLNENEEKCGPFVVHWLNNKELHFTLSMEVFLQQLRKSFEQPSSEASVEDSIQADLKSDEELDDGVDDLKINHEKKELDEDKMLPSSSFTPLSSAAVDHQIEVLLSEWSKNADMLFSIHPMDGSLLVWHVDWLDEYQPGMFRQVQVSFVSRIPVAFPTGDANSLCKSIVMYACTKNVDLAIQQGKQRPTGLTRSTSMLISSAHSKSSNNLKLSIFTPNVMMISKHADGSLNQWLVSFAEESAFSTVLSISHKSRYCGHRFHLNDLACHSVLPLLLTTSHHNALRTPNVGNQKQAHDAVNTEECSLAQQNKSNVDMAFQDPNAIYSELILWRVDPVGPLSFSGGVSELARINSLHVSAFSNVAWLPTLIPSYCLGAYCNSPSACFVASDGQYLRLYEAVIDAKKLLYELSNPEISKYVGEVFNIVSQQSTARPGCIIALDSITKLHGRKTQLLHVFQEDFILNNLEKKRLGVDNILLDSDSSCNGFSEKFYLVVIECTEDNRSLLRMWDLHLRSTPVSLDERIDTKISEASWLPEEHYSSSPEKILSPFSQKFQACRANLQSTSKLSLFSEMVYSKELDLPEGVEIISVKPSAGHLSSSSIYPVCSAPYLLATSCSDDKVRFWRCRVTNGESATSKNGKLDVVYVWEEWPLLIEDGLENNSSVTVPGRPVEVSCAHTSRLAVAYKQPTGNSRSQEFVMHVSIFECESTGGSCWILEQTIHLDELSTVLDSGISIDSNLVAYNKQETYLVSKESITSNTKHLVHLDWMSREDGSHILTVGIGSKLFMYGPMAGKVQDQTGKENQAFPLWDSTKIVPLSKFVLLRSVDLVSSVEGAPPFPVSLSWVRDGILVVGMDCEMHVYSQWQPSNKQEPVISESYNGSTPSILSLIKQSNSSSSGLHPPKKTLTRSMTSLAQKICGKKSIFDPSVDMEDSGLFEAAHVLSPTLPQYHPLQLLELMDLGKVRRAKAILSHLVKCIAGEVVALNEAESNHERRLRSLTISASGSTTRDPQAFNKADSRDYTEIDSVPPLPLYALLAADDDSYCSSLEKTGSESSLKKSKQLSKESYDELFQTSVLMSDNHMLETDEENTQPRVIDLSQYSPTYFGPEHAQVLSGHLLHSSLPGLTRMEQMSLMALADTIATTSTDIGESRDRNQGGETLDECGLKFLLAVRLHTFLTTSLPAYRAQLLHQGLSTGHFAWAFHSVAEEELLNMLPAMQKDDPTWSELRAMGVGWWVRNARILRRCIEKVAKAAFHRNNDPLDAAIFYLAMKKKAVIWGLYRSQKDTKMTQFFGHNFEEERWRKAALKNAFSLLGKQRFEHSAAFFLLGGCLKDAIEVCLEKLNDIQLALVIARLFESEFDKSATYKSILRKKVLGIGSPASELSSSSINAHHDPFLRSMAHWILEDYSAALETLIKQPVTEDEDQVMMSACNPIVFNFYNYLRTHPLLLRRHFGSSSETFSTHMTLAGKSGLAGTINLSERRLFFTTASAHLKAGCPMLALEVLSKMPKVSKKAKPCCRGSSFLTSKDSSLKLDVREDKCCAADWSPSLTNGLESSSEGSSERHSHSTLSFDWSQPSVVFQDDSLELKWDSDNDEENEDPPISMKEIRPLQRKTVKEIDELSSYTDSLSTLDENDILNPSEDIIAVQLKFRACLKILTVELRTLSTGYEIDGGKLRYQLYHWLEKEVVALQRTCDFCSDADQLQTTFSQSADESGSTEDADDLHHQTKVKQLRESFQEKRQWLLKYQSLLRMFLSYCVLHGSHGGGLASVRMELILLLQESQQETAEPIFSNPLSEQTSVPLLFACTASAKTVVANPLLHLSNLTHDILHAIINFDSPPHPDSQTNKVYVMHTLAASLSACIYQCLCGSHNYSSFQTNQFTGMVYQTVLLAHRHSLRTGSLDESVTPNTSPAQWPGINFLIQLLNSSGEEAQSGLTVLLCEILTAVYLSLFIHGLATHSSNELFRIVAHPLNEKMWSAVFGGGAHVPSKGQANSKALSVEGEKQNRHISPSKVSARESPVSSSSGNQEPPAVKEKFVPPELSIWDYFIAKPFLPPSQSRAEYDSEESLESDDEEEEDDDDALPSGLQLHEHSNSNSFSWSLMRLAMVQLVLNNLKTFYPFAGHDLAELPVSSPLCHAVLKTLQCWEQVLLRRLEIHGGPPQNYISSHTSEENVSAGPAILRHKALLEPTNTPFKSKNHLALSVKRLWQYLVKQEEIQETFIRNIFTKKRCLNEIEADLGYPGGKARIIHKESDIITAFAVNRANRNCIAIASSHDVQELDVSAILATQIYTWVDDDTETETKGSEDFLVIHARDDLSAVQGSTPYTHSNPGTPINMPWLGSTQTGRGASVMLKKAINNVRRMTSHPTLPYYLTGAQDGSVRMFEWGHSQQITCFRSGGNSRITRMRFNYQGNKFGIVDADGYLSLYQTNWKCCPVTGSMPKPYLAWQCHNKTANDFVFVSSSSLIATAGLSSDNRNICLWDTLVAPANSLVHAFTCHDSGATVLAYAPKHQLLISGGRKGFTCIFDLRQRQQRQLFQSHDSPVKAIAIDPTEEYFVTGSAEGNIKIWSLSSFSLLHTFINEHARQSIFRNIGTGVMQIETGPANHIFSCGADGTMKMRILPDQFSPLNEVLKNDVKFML
UniProt Q6P3B9: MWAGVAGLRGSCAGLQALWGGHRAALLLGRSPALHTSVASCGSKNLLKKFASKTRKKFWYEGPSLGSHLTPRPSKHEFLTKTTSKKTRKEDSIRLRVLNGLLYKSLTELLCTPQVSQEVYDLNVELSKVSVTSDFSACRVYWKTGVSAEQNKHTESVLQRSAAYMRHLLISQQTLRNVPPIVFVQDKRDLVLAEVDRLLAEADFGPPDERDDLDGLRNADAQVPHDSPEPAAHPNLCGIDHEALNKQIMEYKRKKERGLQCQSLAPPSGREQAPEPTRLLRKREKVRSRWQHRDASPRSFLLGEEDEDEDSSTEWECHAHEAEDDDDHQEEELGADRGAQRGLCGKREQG
UniProt Q6PER3, whole entry: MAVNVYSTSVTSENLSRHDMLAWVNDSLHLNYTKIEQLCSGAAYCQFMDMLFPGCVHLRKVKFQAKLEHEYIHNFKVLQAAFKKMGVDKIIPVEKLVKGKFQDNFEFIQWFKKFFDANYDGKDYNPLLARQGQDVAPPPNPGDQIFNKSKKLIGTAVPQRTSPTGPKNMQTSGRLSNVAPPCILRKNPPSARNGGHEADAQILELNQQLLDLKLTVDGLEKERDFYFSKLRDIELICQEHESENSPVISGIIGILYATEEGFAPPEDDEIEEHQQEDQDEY

The list shows a part of the results. Most entries show no effect beyond the scatter of the controls.

Compound in the assay: CN[C@@H]1C[C@H]2O[C@@](C)([C@@H]1OC)n1c3ccccc3c3c4c(c5c6ccccc6n2c5c31)C(=O)NC4 [staurosporine]
Put plainly: log2 fold change of tryptic peptide abundance, ligand vs vehicle (limited proteolysis) (log2 ratio); higher = more trypsin-susceptible (destabilized). Particulars: ligand concentration: 20 uM; sample: mouse liver crude lysate; replicate design: treated separately.
As for “UniProt Q6NZQ4 (peptide sequence: SEILGTWSPAVR, peptide start residue: 320)”, the log2 fold change is 0.22. With “UniProt Q6P9R1 (peptide sequence: VQPFLPAWLAKPSCVKK, peptide start residue: 146)” the figure was -0.211. For “UniProt Q6R891 (peptide sequence: AAGAPQVNSK, peptide start residue: 233)”, the log2 fold change was -0.574. For the target “UniProt Q6PDK2 (peptide sequence: SEAGHLLLQK, peptide start residue: 4507)”, the log2 fold change came to 0.511. With “UniProt Q6P5D8 (peptide sequence: KQELDEQEK, peptide start residue: 1943)” the figure was -0.438; with “UniProt Q6PAM1 (peptide sequence: LQQAQEMLK, peptide start residue: 341)”, 0.223; with “UniProt Q6Q2Z6 (peptide sequence: HFMAPGVR, peptide start residue: 128)”, 0.0111. For “UniProt Q6PB51 (peptide sequence: LAEDDECPVRK, peptide start residue: 73)” the value was 0.303; for “UniProt Q6SKR2 (peptide sequence: GLFYLVTVK, peptide start residue: 167)”, 0.18; for “UniProt Q6PDE7 (peptide sequence: GNLGSVAPPASR, peptide start residue: 88)”, -0.0775.

For “UniProt Q6A0A2 (peptide sequence: IQNPSAYAK, peptide start residue: 466)”, the log2 fold change was -0.133. With “UniProt Q6VNB8 (peptide sequence: DTSSQPSSTSHRPR, peptide start residue: 3281)” the figure was -0.295; with “UniProt Q6PDY2 (peptide sequence: AEDLNIAPR, peptide start residue: 51)”, -0.254.

As to “UniProt Q6IS41 (peptide sequence: LQADGQGQHR, peptide start residue: 247)”, the log2 fold change is -0.365. For “UniProt Q6DFV7 (peptide sequence: YYSVDDNQNK, peptide start residue: 90)” the value was -0.179; for “UniProt Q6A0D4 (peptide sequence: KMEIFAFFNRPK, peptide start residue: 278)”, 0.453; for “UniProt Q6PCN7 (peptide sequence: SDTPEELRK, peptide start residue: 728)”, -0.342. As to “UniProt Q6PGF7 (peptide sequence: NSEEMWR, peptide start residue: 561)”, the log2 fold change is -0.35. With “UniProt Q6P5F7 (peptide sequence: YLATSQPRPDSSGSGH, peptide start residue: 509)” the figure was -0.25; with “UniProt Q6PNC0 (peptide sequence: GSEDFLVIHAR, peptide start residue: 2677)”, 0.221. With “UniProt Q6PHQ8 (peptide sequence: VFGTHLMQDMVK, peptide start residue: 382)” the figure was 0.28.

Take “UniProt Q6P4S8 (peptide sequence: SLLAGLSLPSR, peptide start residue: 2005)”: the log2 fold change was -0.216. For “UniProt Q6DVA0 (peptide sequence: RELQALGFQPGPITDTTR, peptide start residue: 11)” the value was -0.278; for “UniProt Q6P3B9 (peptide sequence: HTESVLQR, peptide start residue: 153)”, -0.294. As for “UniProt Q6NZQ6 (peptide sequence: EDDSLAEASHSKK, peptide start residue: 54)”, the log2 fold change is -0.415.

In the case of “UniProt Q6NXH2 (peptide sequence: GAGMTVLPAK, peptide start residue: 78)”, the log2 fold change was -0.032.

As for “UniProt Q6PER3 (peptide sequence: LTVDGLEKER, peptide start residue: 214)”, the log2 fold change amounted to 0.279. Consider “UniProt Q6NSR8 (peptide sequence: TVEINNTDAEGR, peptide start residue: 335)”, for which the log2 fold change stood at 0.15. As for “UniProt Q6VH22 (peptide sequence: SHYGYEVEEVK, peptide start residue: 351)”, the log2 fold change was -0.0815. With “UniProt Q6SJQ0 (peptide sequence: AEYSEIQKPR, peptide start residue: 301)” the figure was 0.0712. For “UniProt Q6PDH0 (peptide sequence: VKELEQQLQEAAR, peptide start residue: 739)” the value was 0.589.

Take “UniProt Q6NZJ6 (peptide sequence: TLAFEELR, peptide start residue: 1437)”: the log2 fold change was -0.538. For “UniProt Q6PIP5 (peptide sequence: VKRPLLDPR, peptide start residue: 10)” the value was 0.0638; for “UniProt Q6TXD4 (peptide sequence: VVAELLQTER, peptide start residue: 787)”, 0.329; for “UniProt Q6P6M5 (peptide sequence: LLVVSAQFNHCR, peptide start residue: 49)”, -0.72. For “UniProt Q6P7W5 (peptide sequence: IQVQEVILSR, peptide start residue: 438)”, the log2 fold change was 0.438.
